Results: US20040096448A1
No constants are given. Whether binding was seen depends on the method and setting. Binding seen in cells or lysates may run through a third protein. Some entries that bind do so weakly or less than the wild type. Tags and fused reporters may be left off the sequences shown.

Protein sequences, listed by entry. Tags and fused reporters are not part of them.
UniProt P31749: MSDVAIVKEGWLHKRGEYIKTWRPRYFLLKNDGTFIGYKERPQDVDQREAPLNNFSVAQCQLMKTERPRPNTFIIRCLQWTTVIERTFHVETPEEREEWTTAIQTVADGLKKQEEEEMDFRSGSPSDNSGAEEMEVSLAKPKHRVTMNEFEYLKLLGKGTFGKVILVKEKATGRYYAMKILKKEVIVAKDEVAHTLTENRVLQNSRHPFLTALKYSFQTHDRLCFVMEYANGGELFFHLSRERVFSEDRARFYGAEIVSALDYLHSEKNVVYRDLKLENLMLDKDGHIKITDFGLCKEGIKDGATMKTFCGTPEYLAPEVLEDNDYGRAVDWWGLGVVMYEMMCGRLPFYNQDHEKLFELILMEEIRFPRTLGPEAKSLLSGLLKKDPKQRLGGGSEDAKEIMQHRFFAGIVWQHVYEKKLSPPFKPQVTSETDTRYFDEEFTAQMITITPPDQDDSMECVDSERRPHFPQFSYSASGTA

Target: T1, GSH-bead-immobilized recombinant GST-fused AIP purified from bacterial lysates (human) (UniProt Q96P53)
T1 sequence: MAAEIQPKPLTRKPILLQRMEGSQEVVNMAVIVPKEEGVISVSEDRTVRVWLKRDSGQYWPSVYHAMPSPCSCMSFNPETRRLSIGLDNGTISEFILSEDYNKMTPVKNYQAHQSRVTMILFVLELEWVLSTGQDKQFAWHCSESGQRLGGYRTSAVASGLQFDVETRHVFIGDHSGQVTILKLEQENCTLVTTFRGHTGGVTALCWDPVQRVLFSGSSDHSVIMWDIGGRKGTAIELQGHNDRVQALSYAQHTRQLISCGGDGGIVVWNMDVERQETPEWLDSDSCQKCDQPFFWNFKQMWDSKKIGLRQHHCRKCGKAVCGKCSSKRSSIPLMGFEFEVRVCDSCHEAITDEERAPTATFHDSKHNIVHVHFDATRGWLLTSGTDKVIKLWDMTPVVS
Experiment: pull-down: GST-AIP on GSH beads incubated with lysate of IGF-stimulated 293T cells expressing HA-Akt-1; anti-HA western blot

HA-tagged Akt-1 protein expressed in 293T cells (lysate, after serum starvation and IGF stimulation for 0, 5, 20, 45 min) (from UniProt P31749 1-480) (enzyme)
binding: binds
